In article PMC7181604, “Arabidopsis FHY3 and FAR1 integrate light and strigolactone signaling to regulate branching”:
These are yes or no findings as the source states them, for the method shown. For part of these data: In cells and extracts the contact can be indirect. Some entries that bind do so weakly or less than the wild type. Where a sequence is shown, tags or fusion partners need not be part of it.

T1: SPL15 (yeast two-hybrid fusion) (Arabidopsis thaliana) (UniProt Q9M2Q6)
T1 sequence: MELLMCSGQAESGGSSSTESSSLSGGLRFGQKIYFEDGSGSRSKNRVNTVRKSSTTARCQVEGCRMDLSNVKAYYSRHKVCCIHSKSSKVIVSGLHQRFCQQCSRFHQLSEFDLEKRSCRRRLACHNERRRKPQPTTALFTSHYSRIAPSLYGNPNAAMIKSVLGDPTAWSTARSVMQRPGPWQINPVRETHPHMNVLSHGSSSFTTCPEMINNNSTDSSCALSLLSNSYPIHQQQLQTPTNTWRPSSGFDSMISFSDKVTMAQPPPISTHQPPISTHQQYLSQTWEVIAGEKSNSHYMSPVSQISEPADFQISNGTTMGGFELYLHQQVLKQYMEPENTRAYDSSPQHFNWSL

T2: SPL9 (yeast two-hybrid fusion) (Arabidopsis thaliana) (UniProt Q700W2)
T2 sequence: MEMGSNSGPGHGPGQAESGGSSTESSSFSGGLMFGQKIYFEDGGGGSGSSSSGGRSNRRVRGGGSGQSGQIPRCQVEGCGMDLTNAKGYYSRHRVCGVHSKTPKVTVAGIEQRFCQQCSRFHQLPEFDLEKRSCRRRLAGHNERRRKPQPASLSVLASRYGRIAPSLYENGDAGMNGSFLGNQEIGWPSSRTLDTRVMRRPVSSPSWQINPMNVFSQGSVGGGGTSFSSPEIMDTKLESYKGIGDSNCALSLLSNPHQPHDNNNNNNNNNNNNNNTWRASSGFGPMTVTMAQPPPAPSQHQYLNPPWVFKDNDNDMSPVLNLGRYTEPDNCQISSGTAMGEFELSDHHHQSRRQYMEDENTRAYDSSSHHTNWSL

T3: SPL15 fused to the C-terminal fragment of YFP (BiFC) (Arabidopsis thaliana) (UniProt Q9M2Q6)
T3 sequence: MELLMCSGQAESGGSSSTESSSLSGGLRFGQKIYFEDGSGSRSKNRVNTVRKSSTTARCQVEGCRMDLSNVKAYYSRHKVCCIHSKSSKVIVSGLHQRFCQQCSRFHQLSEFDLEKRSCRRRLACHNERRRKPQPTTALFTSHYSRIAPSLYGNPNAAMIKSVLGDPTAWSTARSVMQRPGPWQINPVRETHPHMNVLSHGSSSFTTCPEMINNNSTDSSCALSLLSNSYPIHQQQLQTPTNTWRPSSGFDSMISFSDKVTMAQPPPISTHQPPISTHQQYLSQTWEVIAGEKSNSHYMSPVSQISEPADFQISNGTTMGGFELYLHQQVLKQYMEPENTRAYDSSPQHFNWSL

T4: SPL9 fused to the C-terminal fragment of YFP (BiFC) (Arabidopsis thaliana) (UniProt Q700W2)
T4 sequence: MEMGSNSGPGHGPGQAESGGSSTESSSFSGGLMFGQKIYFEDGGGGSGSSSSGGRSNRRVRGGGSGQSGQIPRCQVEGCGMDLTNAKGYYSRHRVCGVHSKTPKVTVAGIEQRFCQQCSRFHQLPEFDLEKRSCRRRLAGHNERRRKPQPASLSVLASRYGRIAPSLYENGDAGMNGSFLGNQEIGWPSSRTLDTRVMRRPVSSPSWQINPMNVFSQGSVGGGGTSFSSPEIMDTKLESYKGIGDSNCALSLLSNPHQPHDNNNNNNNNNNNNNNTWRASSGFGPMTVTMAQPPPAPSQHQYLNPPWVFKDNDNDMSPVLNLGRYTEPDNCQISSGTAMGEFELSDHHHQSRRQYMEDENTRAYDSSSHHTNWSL


Assays:
[1] = biological target: T1, SPL15 (yeast two-hybrid fusion) (Arabidopsis thaliana); assay: two-hybrid; LexA/AD system in yeast strain EGY48 plus H18; SD/-Ura/-Trp/-His, then raffinose, galactose and X-gal for blue color development
[2] = biological target: T2, SPL9 (yeast two-hybrid fusion) (Arabidopsis thaliana); assay: as above
[3] = biological target: T3, SPL15 fused to the C-terminal fragment of YFP (BiFC) (Arabidopsis thaliana); assay: split reporter; BiFC (nYFP/cYFP) in N. benthamiana leaf epidermal cells; fluorescence visualized 48 h after infiltration, confocal microscope
[4] = biological target: T4, SPL9 fused to the C-terminal fragment of YFP (BiFC) (Arabidopsis thaliana); assay: as above

| Binder | binding [1] | binding [2] | binding [3] | binding [4] |
| --- | --- | --- | --- | --- |
| FHY3-I domain (yeast two-hybrid fusion) (domain or fragment, UniProt Q9LIE5 1-251) MDIDLRLHSGDLCKGDDEDRGLDNVLHNEEDMDIGKIEDVSVEVNTDDSVGMGVPTGELVEYTEGMNLEPLNGMEFESHGEAYSFYQEYSRAMGFNTAIQNSRRSKTTREFIDAKFACSRYGTKREYDKSFNRPRARQSKQDPENMAGRRTCAKTDCKASMHVKRRPDGKWVIHSFVREHNHELLPAQAVSEQTRKIYAAMAKQFAEYKTVISLKSDSKSSFEKGRTLSVETGDFKILLDFLSRMQSLNSN | binds | binds |  |  |
| FHY3 fused to the N-terminal fragment of YFP (BiFC) (protein, UniProt Q9LIE5 1-839) MDIDLRLHSGDLCKGDDEDRGLDNVLHNEEDMDIGKIEDVSVEVNTDDSVGMGVPTGELVEYTEGMNLEPLNGMEFESHGEAYSFYQEYSRAMGFNTAIQNSRRSKTTREFIDAKFACSRYGTKREYDKSFNRPRARQSKQDPENMAGRRTCAKTDCKASMHVKRRPDGKWVIHSFVREHNHELLPAQAVSEQTRKIYAAMAKQFAEYKTVISLKSDSKSSFEKGRTLSVETGDFKILLDFLSRMQSLNSNFFYAVDLGDDQRVKNVFWVDAKSRHNYGSFCDVVSLDTTYVRNKYKMPLAIFVGVNQHYQYMVLGCALISDESAATYSWLMETWLRAIGGQAPKVLITELDVVMNSIVPEIFPNTRHCLFLWHVLMKVSENLGQVVKQHDNFMPKFEKCIYKSGKDEDFARKWYKNLARFGLKDDQWMISLYEDRKKWAPTYMTDVLLAGMSTSQRADSINAFFDKYMHKKTSVQEFVKVYDTVLQDRCEEEAKADSEMWNKQPAMKSPSPFEKSVSEVYTPAVFKKFQIEVLGAIACSPREENRDATCSTFRVQDFENNQDFMVTWNQTKAEVSCICRLFEYKGYLCRHTLNVLQCCHLSSIPSQYILKRWTKDAKSRHFSGEPQQLQTRLLRYNDLCERALKLNEEASLSQESYNIAFLAIEGAIGNCAGINTSGRSLPDVVTSPTQGLISVEEDNHSRSAGKTSKKKNPTKKRKVNPEQDVMPVAAPESLQQMDKLSPRTVGIESYYGTQQSVQGMVQLNLMGPTRDNFYGNQQTMQGLRQLNSIAPSYDSYYGPQQGIHGQGVDFFRPANFSYDIRDDPNVRTTQLHEDASRHS |  |  | binds | binds |
| FAR1 fused to the N-terminal fragment of YFP (BiFC) (protein, UniProt Q9SWG3 1-827) MDLQENLVSDAGDDHMVDIVVEPHSNRDIGIVDEFNIGGDVGFSGDLDLEPRNGIDFDTHEAAYIFYQEYAKSMGFTTSIKNSRRSKKTKDFIDAKFACSRYGVTPESESSGSSSRRSTVKKTDCKASMHVKRRPDGKWIIHEFVKDHNHELLPALAYHFRIQRNVKLAEKNNIDILHAVSERTKKMYVEMSRQSGGYKNIGSLLQTDVSSQVDKGRYLALEEGDSQVLLEYFKRIKKENPKFFYAIDLNEDQRLRNLFWADAKSRDDYLSFNDVVSFDTTYVKFNDKLPLALFIGVNHHSQPMLLGCALVADESMETFVWLIKTWLRAMGGRAPKVILTDQDKFLMSAVSELLPNTRHCFALWHVLEKIPEYFSHVMKRHENFLLKFNKCIFRSWTDDEFDMRWWKMVSQFGLENDEWLLWLHEHRQKWVPTFMSDVFLAGMSTSQRSESVNSFFDKYIHKKITLKEFLRQYGVILQNRYEEESVADFDTCHKQPALKSPSPWEKQMATTYTHTIFKKFQVEVLGVVACHPRKEKEDENMATFRVQDCEKDDDFLVTWSKTKSELCCFCRMFEYKGFLCRHALMILQMCGFASIPPQYILKRWTKDAKSGVLAGEGADQIQTRVQRYNDLCSRATELSEEGCVSEENYNIALRTLVETLKNCVDMNNARNNITESNSQLNNGTHEEENQVMAGVKATKKKTVYRKRKGQQEASQMLESQQSLQPMETISSEAMDMNGYYGPQQNVQGLLNLMEPPHEGYYVDQRTIQGLGQLNSIAPAQDSFFTNQQAMSGMVGQIDFRPPPNFTYTLQEEHLSSAQLPGSSSRQL |  |  | binds | binds |
| SMXL6 SPYNE fusion (BiFC) (protein, UniProt Q9LML2 1-979) MPTPVTTARECLTEEAARALDDAVVVARRRSHAQTTSLHAVSALLAMPSSILREVCVSRAARSVPYSSRLQFRALELCVGVSLDRLPSSKSPATEEDPPVSNSLMAAIKRSQANQRRHPESYHLQQIHASNNGGGGCQTTVLKVELKYFILSILDDPIVNRVFGEAGFRSSEIKLDVLHPPVTQLSSRFSRGRCPPLFLCNLPNSDPNREFPFSGSSGFDENSRRIGEVLGRKDKKNPLLIGNCANEALKTFTDSINSGKLGFLQMDISGLSLISIEKEISEILADGSKNEEEIRMKVDDLGRTVEQSGSKSGIVLNLGELKVLTSEANAALEILVSKLSDLLKHESKQLSFIGCVSSNETYTKLIDRFPTIEKDWDLHVLPITASTKPSTQGVYPKSSLMGSFVPFGGFFSSTSNFRVPLSSTVNQTLSRCHLCNEKYLQEVAAVLKAGSSLSLADKCSEKLAPWLRAIETKEDKGITGSSKALDDANTSASQTAALQKKWDNICQSIHHTPAFPKLGFQSVSPQFPVQTEKSVRTPTSYLETPKLLNPPISKPKPMEDLTASVTNRTVSLPLSCVTTDFGLGVIYASKNQESKTTREKPMLVTLNSSLEHTYQKDFKSLREILSRKVAWQTEAVNAISQIICGCKTDSTRRNQASGIWLALLGPDKVGKKKVAMTLSEVFFGGKVNYICVDFGAEHCSLDDKFRGKTVVDYVTGELSRKPHSVVLLENVEKAEFPDQMRLSEAVSTGKIRDLHGRVISMKNVIVVVTSGIAKDNATDHVIKPVKFPEEQVLSARSWKLQIKLGDATKFGVNKRKYELETAQRAVKVQRSYLDLNLPVNETEFSPDHEAEDRDAWFDEFIEKVDGKVTFKPVDFDELAKNIQEKIGSHFERCFGSETHLELDKEVILQILAASWSSLSSGEEEGRTIVDQWMQTVLARSFAEAKQKYGSNPMLGVKLVASSSGLASGVELPAKVDVIW |  |  | binds | binds |

Other lines, results leading:

| binding [1] | binding [2] | binding [3] | binding [4] | Binder |
| --- | --- | --- | --- | --- |
| binds | binds |  |  | SMXL8 (yeast two-hybrid fusion) (protein, UniProt F4IGZ2 1-910) MPTAVNVAKQCLTAEASYALEEAVNVARRRGHSQTTSLHAISALLSLPTSVLRDACARVRNSAYSPRLQFKALDLCLSVSLDRIQSGHQLGSDDSPPVSNSLMAAIKRSQAHQRRLPENFRIYQEMSQSQNQNSLSCVKVELRQLILSILDDPVVSRVFGEAGFRSSELKLSIIRPVPHLLRYSSQQPLFLCNLTGNPEPNPVRWGFTVPSLNFNGDLDYRRISAVFTKDKGRNPLLVGVSAYGVLTSYLNSLEKNQTDGMILPTKLHGLTAVNIGSEISDQISVKFDKTYTDTRFHDLGKLAEQGSGPGLLLHYGDLRVFTNGEGNVPAANYIVNRISELLRRHGRRVWLIGATTSNEVYEKMMRRFPNVEKDWDLQLLTITSLKPCLPHNKSSLIGSFVPFGGFFSTTPSELKLPFSGFKTEITGPVSSISDQTQSTLPPWLQMTTRTDLNQKSSAKVVQTKEGLESVCGNKFTSSASASTCSAKSVTTDLNLRVSSVTTGSGLKKHLDSKDFSQPQSVSSYSFDNPRDLNAESFKIIYRRLTDMVSGQDEAARVISCALSQPPKSVTRRDVWLNLVGPDTVGKRRMSLVLAEIVYQSEHRFMAVDLGAAEQGMGGCDDPMRLRGKTMVDHIFEVMCRNPFCVVFLENIEKADEKLQMSLSKAIETGKFMDSHGREVGIGNTIFVMTSSSQGSATTTSYSEEKLLRVKGRQVEIRIETVSSLPMVRSVYGPTSVNKRKLMGLGNLQETKDTVESVKRLNRTTNGVLDLNLPAQETEIEEKYHCEENSNVWLMNLKNHKRLIEVPFKPFDFEGLAEKIKKSVKENFDKCVRSDCLLEVDPKIIERLLAAVYFSDSRKDIKELLENIMSPVFLRIKERYEITTSCVVKLVGRDLDIFLEDQMDLFFVKSQ |
|  |  | binds | binds | SMXL8 SPYNE fusion (BiFC) (protein, UniProt F4IGZ2 1-910) MPTAVNVAKQCLTAEASYALEEAVNVARRRGHSQTTSLHAISALLSLPTSVLRDACARVRNSAYSPRLQFKALDLCLSVSLDRIQSGHQLGSDDSPPVSNSLMAAIKRSQAHQRRLPENFRIYQEMSQSQNQNSLSCVKVELRQLILSILDDPVVSRVFGEAGFRSSELKLSIIRPVPHLLRYSSQQPLFLCNLTGNPEPNPVRWGFTVPSLNFNGDLDYRRISAVFTKDKGRNPLLVGVSAYGVLTSYLNSLEKNQTDGMILPTKLHGLTAVNIGSEISDQISVKFDKTYTDTRFHDLGKLAEQGSGPGLLLHYGDLRVFTNGEGNVPAANYIVNRISELLRRHGRRVWLIGATTSNEVYEKMMRRFPNVEKDWDLQLLTITSLKPCLPHNKSSLIGSFVPFGGFFSTTPSELKLPFSGFKTEITGPVSSISDQTQSTLPPWLQMTTRTDLNQKSSAKVVQTKEGLESVCGNKFTSSASASTCSAKSVTTDLNLRVSSVTTGSGLKKHLDSKDFSQPQSVSSYSFDNPRDLNAESFKIIYRRLTDMVSGQDEAARVISCALSQPPKSVTRRDVWLNLVGPDTVGKRRMSLVLAEIVYQSEHRFMAVDLGAAEQGMGGCDDPMRLRGKTMVDHIFEVMCRNPFCVVFLENIEKADEKLQMSLSKAIETGKFMDSHGREVGIGNTIFVMTSSSQGSATTTSYSEEKLLRVKGRQVEIRIETVSSLPMVRSVYGPTSVNKRKLMGLGNLQETKDTVESVKRLNRTTNGVLDLNLPAQETEIEEKYHCEENSNVWLMNLKNHKRLIEVPFKPFDFEGLAEKIKKSVKENFDKCVRSDCLLEVDPKIIERLLAAVYFSDSRKDIKELLENIMSPVFLRIKERYEITTSCVVKLVGRDLDIFLEDQMDLFFVKSQ |
